Assay results as given in PMC12473123, “Structure–Function Insights into Quinuclidine-3-One BisQACs: Synthesis, Modulation of Bacterial Resistance, Structure–Activity Relationship, and Biological Profiling” (Pharmaceuticals, 2025).

How the values were obtained:
HEK293 cells = assay: Cytotoxicity MTS assay; assay type: cell-based, human; details: IC50 HEK293 / MIC S. aureus ATCC 25923
Description: (§1) The cytotoxic potential of the selected drug candidates was evaluated using the CellTiter 96® AQueous One Solution Cell Proliferation Assay (Promega, Madison, WI, USA), following the manufacturer’s protocol. Human cell lines RPE1 and HEK293 were cultured at 37 °C in a humidified incubator with 5% CO2. Test compounds were dissolved in the appropriate growth medium and serially diluted across a range of concentrations in 96-well microtiter plates. Each well was seeded with 5000 cells and incubated for 48 h under standard culture conditions. Following this incubation period, 20 µL of MTS reagent was added to each well, and the plates were further incubated for 3 h to allow for color development. Absorbance was measured at 490 nm using a microplate reader to determine cell viability. Cytotoxicity was quantified as the half-maximal inhibitory concentration (IC50), defined as the concentration of compound that reduced cell viability by 50%. […] IC50 values were calculated using GraFit 6.0 software by plotting compound concentration against absorbance and fitting the data to a sigmoidal dose–response curve.

RPE1 cells = assay: Cytotoxicity MTS assay; assay type: cell-based, human; details: IC50 RPE1 / MIC S. aureus ATCC 25923
Description: as §1

Structure (SMILES) | SI (IC50/MIC) HEK293 (HEK293 cells) | SI (IC50/MIC) RPE1 (RPE1 cells)
CCCCCCCCCCCCCCNC1C[N+]2(CCCCCC[N+]34CCC(CC3)C(NCCCCCCCCCCCCCC)C4)CCC1CC2 (racemic) [2(QC14)6, (±)-1,1′-(Hexane-1,6-diyl) bis(3-(tetradecylamino)quinuclidinium) dibromide] | 1.11 | 1.61
CCCCCCCCCCCCCCCCNC1C[N+]2(CCC[N+]34CCC(CC3)C(NCCCCCCCCCCCCCCCC)C4)CCC1CC2 (racemic) [2(QC16)3, (±)-1,1′-(Propane-1,3-diyl) bis(3-(hexadecylamino)quinuclidinium) dibromide] | 0.55 | 1.82
CCCCCCCCCCCCCCCCNC1C[N+]2(CCCC[N+]34CCC(CC3)C(NCCCCCCCCCCCCCCCC)C4)CCC1CC2 (racemic) [2(QC16)4, (±)-1,1′-(Butane-1,4-diyl) bis(3-(hexadecylamino)quinuclidinium) dibromide] | 0.33 | 0.45
CCCCCCCCCCCCCCCCNC1C[N+]2(CCCCCC[N+]34CCC(CC3)C(NCCCCCCCCCCCCCCCC)C4)CCC1CC2 (racemic) [2(QC16)6, (±)-1,1′-(Hexane-1,6-diyl) bis(3-(hexadecylamino)quinuclidinium) dibromide] | 0.78 | 0.56
